Assay results taken from article PMC5309953.
These are yes or no findings as the source states them, for the method shown. Binding seen in cells or lysates may run through a third protein. Some results given as binding are weak or reduced against the parent protein; the word gives no strength.

Experiments:
[1] = target: GFP-IRAV (IRAV with an amino-terminal green fluorescent protein fusion) (human) (UniProt Q9NUL5); assay: co-IP; HEK293 cells, uninfected or DENV-infected, transfected with GFP-IRAV (GFP-CAT as control); IP of lysates with an antibody to GFP, Western blot for the partner
[2] = target: T1, MOV10 (RISC complex RNA helicase) (human (endogenous in HEK293 and A549)) (UniProt Q9HCE1); assay: co-IP; reciprocal: HEK293 cells transfected with GFP-IRAV; IP with an antibody to endogenous MOV10 (normal IgG as control), Western blot for IRAV
T1 sequence: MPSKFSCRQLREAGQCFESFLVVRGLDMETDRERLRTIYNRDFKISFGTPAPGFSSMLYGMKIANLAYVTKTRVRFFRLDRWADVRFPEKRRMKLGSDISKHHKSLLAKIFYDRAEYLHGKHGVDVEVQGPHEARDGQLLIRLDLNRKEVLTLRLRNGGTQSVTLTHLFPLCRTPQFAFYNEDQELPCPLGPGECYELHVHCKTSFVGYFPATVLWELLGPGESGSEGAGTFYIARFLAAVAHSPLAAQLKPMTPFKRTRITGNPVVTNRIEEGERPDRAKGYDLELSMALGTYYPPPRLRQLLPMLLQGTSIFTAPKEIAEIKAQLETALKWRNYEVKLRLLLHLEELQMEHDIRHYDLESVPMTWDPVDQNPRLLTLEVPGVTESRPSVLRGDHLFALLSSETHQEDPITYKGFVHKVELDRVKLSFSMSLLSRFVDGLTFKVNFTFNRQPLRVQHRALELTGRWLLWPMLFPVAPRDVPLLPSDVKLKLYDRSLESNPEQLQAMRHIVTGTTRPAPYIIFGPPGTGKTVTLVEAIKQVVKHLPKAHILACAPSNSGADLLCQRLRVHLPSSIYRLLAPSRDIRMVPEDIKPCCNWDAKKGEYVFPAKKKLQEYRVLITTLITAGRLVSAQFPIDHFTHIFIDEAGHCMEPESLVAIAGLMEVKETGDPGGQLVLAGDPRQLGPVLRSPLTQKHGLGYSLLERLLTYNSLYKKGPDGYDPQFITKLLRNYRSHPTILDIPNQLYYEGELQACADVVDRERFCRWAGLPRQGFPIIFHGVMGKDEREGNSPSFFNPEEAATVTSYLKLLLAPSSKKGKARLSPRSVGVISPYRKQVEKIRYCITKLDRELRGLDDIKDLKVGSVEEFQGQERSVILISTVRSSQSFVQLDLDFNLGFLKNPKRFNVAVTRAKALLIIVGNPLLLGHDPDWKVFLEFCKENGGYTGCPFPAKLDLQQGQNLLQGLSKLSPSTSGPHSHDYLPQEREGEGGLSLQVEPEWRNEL

Substance	binding [1]	binding [2]
HuR (ELAV1) (from UniProt Q15717 1-326)	binds	–
GFP-IRAV (IRAV with an amino-terminal green fluorescent protein fusion) (from UniProt Q9NUL5 1-291)	–	binds
